According to PubChem BioAssay AID540256 (National Center for Advancing Translational Sciences (NCATS), 2011):
Out of some 300,000 compounds screened, about 3,700 (1.2%) were called active. The inconclusive results got no clear call from the source; some entries with a clear call stand among them for comparison. The call rests on the fitted dose curve; tested in HEK293 cells. Potencies of inconclusive entries are doubtful fits and often do not repeat.

Experiment: qHTS for Inhibitors of binding or entry into cells for Lassa Virus; further: nearly all actives have a fitted effect of over 50% in size
Settings: Lassa virus pseudotype entry inhibition, cell reporter; series mostly up to 37.9 µM
Potency means the concentration at half of the fitted maximal effect.

| SMILES | Potency |
| --- | --- |
| CS(=O)(=O)N(CCc1ccccc1)CC(=O)Nc1ccc(OCc2ccccc2)cc1 | inconclusive: 20 µM [inhibitor, single point] |
| Cc1cc([N+](=O)[O-])ccc1NC(=O)c1csc(C)c1C | inactive |
| Cc1cc2n(n1)CCCN2C(=O)Nc1ccc(F)c(Cl)c1 | inactive |
| COc1ccc(CC(=O)Nc2nc(-c3cc(OC)ccc3OC)cs2)cc1 | inconclusive: 8.91 µM [inhibitor, partial curve, poor fit] |
| COc1cccc(CN2C(=O)C(C)N(C(=O)c3ccccc3)c3ccccc32)c1 (configuration not stated) | inconclusive: 1.78 µM [inhibitor, full curve, poor fit] |
| Cc1ccc(-c2nnn3c2nc(NC2CCC(C)CC2)c2ccccc23)cc1 (configuration not stated) | inactive |
| O=C(NCC1(O)CCCCC1)C1CCC(=O)N(CCc2ccccc2)C1 (configuration not stated) | inactive |
| NC(N)=Nc1nc(CSCC/C(N)=N/S(N)(=O)=O)cs1 | inactive |
| CCc1nn(CC(=O)N(CC)Cc2ccccc2)c(=O)c2cc3occc3n12 | inactive |
| Cc1cc(NC(=O)CCC(=O)N(c2ccccc2)C(C(=O)NC2CCCC2)c2ccc(F)cc2)no1 (configuration not stated) | inactive |
| COCCN(C(=O)CCSc1ccc(F)cc1)c1c(N)n(Cc2ccccc2)c(=O)[nH]c1=O | inactive |
| Cc1nc(C(C)N(C)Cc2nc(Cc3ccccc3F)no2)c(C)s1 (configuration not stated) | inconclusive: 2.51 µM [inhibitor, single point] |
| Cc1cccc(C)c1NC(=S)N(CCN(C)C)C(C)c1cccnc1 (configuration not stated) | inconclusive: 1.26 µM [inhibitor, single point] |
| Cc1c(-c2ccccc2)nnn1-c1ccc(F)cc1F | inconclusive: 5.62 µM [activator, single point] |
| N#C/C(=C\c1ccc[nH]1)C(=O)Nc1ccccc1Cl | inactive |
| Cc1ccc(CNC(=O)c2oc3ccc(S(=O)(=O)N4CCC5(CC4)OCCO5)cc3c2C)cc1 | inconclusive: 25.1 µM [inhibitor, single point] |
| COc1ccc(-n2c(=S)[nH]c3cc(C(=O)NCc4cccnc4)ccc3c2=O)cc1 | inconclusive: 3.16 µM [inhibitor, partial curve, poor fit] |
| CCCn1c(=O)[nH]c(=O)c2c(C(=O)OCC)cc(-c3cccs3)nc21 | inconclusive: 14.1 µM [inhibitor, single point] |
| CC1CCN(S(=O)(=O)c2ccc(NC(=O)CCN3C(=O)c4ccccc4C3=O)cc2)CC1 | inconclusive: 18.3 µM [activator, single point] |
| Cc1ccc(C(=O)NCC(=O)OCC(=O)NC2CCCC(C)C2C)s1 (configuration not stated) | inactive |
| c1ccc2c(c1)Nc1nccnc1S2 | inconclusive: 31.6 µM [activator, partial curve, poor fit] |
| CCN(CC)C(=O)CNC(=S)N(CCCN1CCOCC1)Cc1cccs1 | inconclusive: 35.5 µM [activator, single point] |
| CCc1ccc(NC(=S)NCc2cccnc2)cc1 | inactive |
| COc1ccc(Cc2nnc(NC(=O)CSc3ccc(C)cc3)s2)cc1 | inconclusive: 12.6 µM [inhibitor, partial curve] |

| SMILES | Potency |
| --- | --- |
| COc1ccc(NC(=O)CN(C)C(=O)/C=C/c2cn(-c3ccccc3)nc2-c2ccc(F)cc2)cc1 | inconclusive: 15.8 µM [inhibitor, single point] |
| C/C=C/C(=O)OCC(=O)NC(=O)NC(C)C | inconclusive: 0.0891 µM [activator, full curve, poor fit] |
| COc1ccc(C(=O)NCC(=O)OCc2ccc([N+](=O)[O-])cc2)cc1 | inconclusive: 3.16 µM [inhibitor, single point] |
| CCOC(=O)c1sc(NC(=O)/C=C/c2ccccc2)nc1C | inactive |
| COc1ccc(CNC(=O)c2cc3c(-c4ccccc4F)nn(C)c3s2)cc1 | inconclusive: 11.2 µM [inhibitor, partial curve] |
| CC(=O)c1ccc(NC(=O)CSc2nc(C3CC3)nc3ccccc23)cc1 | inconclusive: 0.112 µM [inhibitor, full curve, poor fit] |
| Cc1ccc(NS(=O)(=O)c2cc(NC(=O)c3ccc4c(c3)NC(=O)CS4)ccc2C)c(C)c1 | inconclusive: 10 µM [inhibitor, partial curve, poor fit] |
| O=C(Cn1ncc(Cl)c(Cl)c1=O)c1ccc2c(c1)OCCO2 | active: 12.6 µM |
| Cc1csc2nc(CSc3ccc(Cl)cc3)cn12 | inconclusive: 1.58 µM [activator, partial curve, poor fit] |
| Cc1nc(SCc2c(F)cccc2Cl)n[nH]1 | inactive |
| CCN(CC)c1ccc(/C=N/Nc2nc3ccccc3[nH]2)cc1 | active: 8.2 µM |
| CCCCC(CC)C(=O)Nc1ncc([N+](=O)[O-])s1 (configuration not stated) | inconclusive: 12.6 µM [inhibitor, single point] |
| COc1ccc(OC)c(NC(=O)c2c(NCc3ccc(OC)c(OC)c3)sc3c2CCC3)c1 | inactive |
| O=C(Nc1ccc(Br)cc1F)C(NS(=O)(=O)c1cccc2nsnc12)c1ccccc1 (configuration not stated) | inconclusive: 11.2 µM [activator, partial curve, poor fit] |
| Cc1cccc(C2c3[nH]c4ccccc4c3CCN2C(=O)c2ocnc2C)n1 (configuration not stated) | inactive |
| Cc1nn(-c2ccccc2)c(C)c1/C=C1\C(=O)N(C)C(=S)N1C | inactive |
| Cc1nn2c(N)c(C#N)cnc2c1-c1ccc(Cl)cc1 | inactive |
| COC(=O)n1c(=O)oc2ccccc21 | inactive |
| CCc1ccc2c(c1)cc(CN(C(=S)Nc1ccccc1C)C1CC1)c1nnnn12 | inactive |
| COc1ccccc1N1N=C(c2ccc([N+](=O)[O-])cc2)CC1c1ccccc1 (configuration not stated) | inconclusive: 31.6 µM [inhibitor, single point] |
| CCOc1ccc2cc(C3CC(c4ccco4)=NN3S(C)(=O)=O)c(Cl)nc2c1 (configuration not stated) | inconclusive: 39.8 µM [activator, partial curve, poor fit] |
| O=C(Nc1ccc(Cl)c(Cl)c1)C1=Cc2ccccc2OC1 | inconclusive: 35.5 µM [inhibitor, single point] |
| CCOCCCNC(=O)C1CCN(c2cc(C)nc3c(-c4ccc(Cl)cc4)c(C)nn23)CC1 | inactive |
| CCOC(=O)C1CCCN(C(=O)c2cc3c(-c4cccc(OC)c4)nn(C)c3s2)C1 (configuration not stated) | inconclusive: 7.08 µM [inhibitor, partial curve, poor fit] |

| SMILES | Potency |
| --- | --- |
| CCOC(=O)C(N)CSC1CC(=O)N(c2ccc(C(=O)OC)cc2)C1=O (configuration not stated) | inactive |
| COc1cccc(NC(=O)c2ncc(Cl)c(Cl)c2Cl)c1 | inconclusive: 25.1 µM [inhibitor, single point] |
| CC(=O)OCCNc1cc(SC(C)C)c2nonc2c1[N+](=O)[O-] | inconclusive: 35.5 µM [inhibitor, single point] |
| Cc1ccc(N2CCN(S(=O)(=O)c3cccs3)CC2C)cc1 (configuration not stated) | inconclusive: 39.8 µM [inhibitor, partial curve, poor fit] |
| Clc1ccc2nc(Nc3ccccc3Cl)nc(-c3ccccc3)c2c1 | inactive |
| CCc1ccc(NC(=S)NC2CC3CCCC(C2)N3Cc2ccccc2)cc1 (configuration not stated) | inconclusive: 23.1 µM [inhibitor, single point] |
| CC(C)(C)c1ccc(OCCCC(=O)NC2=NCCS2)cc1 | inconclusive: 22.4 µM [inhibitor, single point] |
| CCc1ccc(NS(=O)(=O)c2ccc3[nH]cc(C(=O)NCc4ccc(C)cc4)c(=O)c3c2)cc1 | inconclusive: 35.5 µM [inhibitor, partial curve, poor fit] |
| COc1cc2c(cc1OC)C(c1cccs1)N(C(=O)c1cccnc1)CC2 (configuration not stated) | inconclusive: 3.26 µM [inhibitor, full curve] |
| O=C(O)CSc1nc2c(c(C(F)(F)F)n1)CCCC2 | inactive |
| Cn1nc(C(=O)N2CCN(c3ccc(Cl)cc3)CC2)c2c1-c1ccccc1S(=O)(=O)C2 | inconclusive: 35.5 µM [inhibitor, single point] |
| Cc1c(N=NC2=C(O)CC(C)(C)CC2=O)cc2c(c1[N+](=O)[O-])C(C)(C)CC2(C)C | inconclusive: 20 µM [inhibitor, single point] |
| CCOc1ccc(-n2c(-c3ccccc3)c[n+]3c2CCC3)cc1 | inconclusive: 11.2 µM [inhibitor, partial curve, poor fit] |
| O=C(O)c1ccccc1C(=O)N1CCc2c([nH]c3ccccc23)C1C(F)(F)F (configuration not stated) | inactive |
| O=S(=O)(c1ccc(Br)cc1)c1nc(-c2ccccc2)oc1NCCN1CCOCC1 | inconclusive: 12.6 µM [inhibitor, single point] |
| CCCCCn1c(=O)[nH]c2cc(C(=O)N3CCN(CC)CC3)ccc2c1=O | inactive |
| Cc1[nH]c2ccccc2c1N=Nc1ccccc1F | inactive |
| CCC1CN(C(=O)Nc2cccc(OC)c2)c2ccccc2O1 (configuration not stated) | inconclusive: 7.94 µM [inhibitor, partial curve, poor fit] |
| N/C(=N\OC(=O)c1ccccc1Cl)c1cccnc1 | inconclusive: 35.5 µM [inhibitor, single point] |
| Cc1noc(C)c1COc1cccc(C(=O)OCC(=O)N2CC(=O)Nc3ccccc32)c1 | inconclusive: 2.91 µM [inhibitor, partial curve, poor fit] |
| COc1ccc2c(c1)c1c(c(=O)n(-c3ccc(F)c(Cl)c3)c(=O)n1CC(N)=O)n2C | inactive |
| CC(=O)Nc1ccc(NC(=O)C(C)OC(=O)c2c(C)nn(-c3ccccc3)c2Cl)cc1 (configuration not stated) | active: 3.55 µM |
| CSc1ccc2c(c1)N(CCC1CCCCN1C)c1ccccc1S2 (configuration not stated) | active: 5.17 µM |
| COc1ccc(-n2nc(C#N)c(Cl)cc2=O)cc1 | inconclusive: 4.47 µM [inhibitor, full curve, poor fit] |

Gathered by group, the entries above with a nitro group on carbon

| SMILES | Potency |
| --- | --- |
| Cc1cc([N+](=O)[O-])ccc1NC(=O)c1csc(C)c1C | inactive |
| COc1ccc(C(=O)NCC(=O)OCc2ccc([N+](=O)[O-])cc2)cc1 | inconclusive: 3.16 µM [inhibitor, single point] |
| CCCCC(CC)C(=O)Nc1ncc([N+](=O)[O-])s1 (configuration not stated) | inconclusive: 12.6 µM [inhibitor, single point] |
| COc1ccccc1N1N=C(c2ccc([N+](=O)[O-])cc2)CC1c1ccccc1 (configuration not stated) | inconclusive: 31.6 µM [inhibitor, single point] |
| CC(=O)OCCNc1cc(SC(C)C)c2nonc2c1[N+](=O)[O-] | inconclusive: 35.5 µM [inhibitor, single point] |
| Cc1c(N=NC2=C(O)CC(C)(C)CC2=O)cc2c(c1[N+](=O)[O-])C(C)(C)CC2(C)C | inconclusive: 20 µM [inhibitor, single point] |
